These are yes or no findings as the source states them, for the method shown. Binding seen in cells or lysates may run through a third protein. For some assays here: Binding can be weak; no strength is given.

The target in assay [1] is T1, flotillin-2 (human (endogenous in MCF10A, MCF7, HaCaT, Hep3B, HeLa)) (UniProt Q14254).
T1 sequence: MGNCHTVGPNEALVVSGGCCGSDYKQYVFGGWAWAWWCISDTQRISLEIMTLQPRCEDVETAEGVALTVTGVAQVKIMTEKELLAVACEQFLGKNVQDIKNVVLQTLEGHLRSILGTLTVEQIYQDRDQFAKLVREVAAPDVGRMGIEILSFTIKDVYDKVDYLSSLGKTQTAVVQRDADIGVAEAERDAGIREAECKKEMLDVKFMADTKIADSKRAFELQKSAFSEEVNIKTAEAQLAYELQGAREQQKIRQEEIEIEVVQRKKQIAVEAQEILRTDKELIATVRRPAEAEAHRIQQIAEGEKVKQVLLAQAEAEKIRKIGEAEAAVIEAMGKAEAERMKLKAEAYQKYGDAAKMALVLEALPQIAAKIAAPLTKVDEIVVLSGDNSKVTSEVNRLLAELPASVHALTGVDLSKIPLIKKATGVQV
The assay can be described thus: co-IP; IP with polyclonal flotillin-1 or flotillin-2 antibody on Dynabeads protein A from lysate of MCF10A cells grown confluent for 5 days; 750 µg total protein; 10 mM Tris-HCl pH 8.0, 150 mM NaCl, 5 mM EDTA, 0.5% Triton X-100, 60 mM N-octylglucoside.

The target in assay [2] is T2, flotillin-1 (human (endogenous in MCF10A, MCF7, HaCaT, Hep3B, HeLa)) (UniProt O75955).
T2 sequence: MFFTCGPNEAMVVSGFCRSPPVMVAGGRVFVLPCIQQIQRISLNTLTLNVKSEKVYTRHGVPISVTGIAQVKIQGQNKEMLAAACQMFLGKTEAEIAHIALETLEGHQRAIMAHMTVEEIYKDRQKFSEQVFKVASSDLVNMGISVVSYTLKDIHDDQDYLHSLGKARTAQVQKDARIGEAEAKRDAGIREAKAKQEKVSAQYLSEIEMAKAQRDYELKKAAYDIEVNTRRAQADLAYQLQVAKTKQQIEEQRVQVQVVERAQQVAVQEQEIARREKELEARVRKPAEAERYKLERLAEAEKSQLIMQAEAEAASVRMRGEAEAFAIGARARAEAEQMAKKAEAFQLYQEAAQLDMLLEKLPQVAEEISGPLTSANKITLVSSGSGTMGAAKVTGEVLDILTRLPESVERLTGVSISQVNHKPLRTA
The description is as above.

The target in assay [3] is T3, γ-catenin (human (endogenous in MCF10A, MCF7, HaCaT, Hep3B, HeLa)) (UniProt P14923).
T3 sequence: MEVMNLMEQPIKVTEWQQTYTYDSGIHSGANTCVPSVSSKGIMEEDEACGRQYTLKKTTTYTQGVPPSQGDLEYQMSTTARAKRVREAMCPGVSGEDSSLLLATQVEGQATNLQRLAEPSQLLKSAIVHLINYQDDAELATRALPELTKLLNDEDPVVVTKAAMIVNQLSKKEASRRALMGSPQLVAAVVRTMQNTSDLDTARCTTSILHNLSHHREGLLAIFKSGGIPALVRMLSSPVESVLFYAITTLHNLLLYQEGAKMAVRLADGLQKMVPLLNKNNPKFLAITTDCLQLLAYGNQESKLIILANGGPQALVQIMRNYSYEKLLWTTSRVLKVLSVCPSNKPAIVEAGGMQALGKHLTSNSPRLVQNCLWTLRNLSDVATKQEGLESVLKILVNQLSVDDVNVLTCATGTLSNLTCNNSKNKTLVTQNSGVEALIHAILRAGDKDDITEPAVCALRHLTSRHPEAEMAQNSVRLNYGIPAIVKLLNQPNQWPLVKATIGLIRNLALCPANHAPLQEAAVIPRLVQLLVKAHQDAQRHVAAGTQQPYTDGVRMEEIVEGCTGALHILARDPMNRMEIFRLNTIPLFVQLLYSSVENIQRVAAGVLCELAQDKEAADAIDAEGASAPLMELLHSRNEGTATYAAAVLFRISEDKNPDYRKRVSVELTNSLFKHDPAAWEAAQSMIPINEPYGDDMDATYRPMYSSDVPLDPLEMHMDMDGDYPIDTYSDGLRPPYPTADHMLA
The assay can be described thus: co-IP; IP with an antibody against γ-catenin; 750 µg total protein.

Assay [4] concerns the target T1, flotillin-2 (human (endogenous in MCF10A, MCF7, HaCaT, Hep3B, HeLa)). The assay can be described thus: co-IP; IP with flotillin-1 or flotillin-2 antibodies from MCF7, HaCaT, Hep3B and HeLa lysates; 750 µg total protein.
For assay [5], the target named is T2, flotillin-1 (human (endogenous in MCF10A, MCF7, HaCaT, Hep3B, HeLa)). The assay is described as above.

On to E-cadherin, for which the binding entry in assay [1] is on record as “binds”; in assay [2] it was “no binding”; in assay [3], “binds”; in assay [4], “binds”; in assay [5], “no binding”.

For the origin of these results see PMC3877284.
